The values below come from PMC11479587.

The chains behind the UniProt entries cited, without tags or fusion partners.
UniProt Q9UDY4: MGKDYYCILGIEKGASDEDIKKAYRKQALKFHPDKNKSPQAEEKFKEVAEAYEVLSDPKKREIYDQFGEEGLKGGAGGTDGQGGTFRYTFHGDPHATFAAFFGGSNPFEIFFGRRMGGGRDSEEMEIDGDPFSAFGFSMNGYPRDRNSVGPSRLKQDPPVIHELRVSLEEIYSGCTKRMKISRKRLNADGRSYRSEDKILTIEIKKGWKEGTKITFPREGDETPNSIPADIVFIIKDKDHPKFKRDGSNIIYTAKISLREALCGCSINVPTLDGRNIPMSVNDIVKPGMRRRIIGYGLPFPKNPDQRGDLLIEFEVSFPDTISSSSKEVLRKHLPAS
UniProt P11142: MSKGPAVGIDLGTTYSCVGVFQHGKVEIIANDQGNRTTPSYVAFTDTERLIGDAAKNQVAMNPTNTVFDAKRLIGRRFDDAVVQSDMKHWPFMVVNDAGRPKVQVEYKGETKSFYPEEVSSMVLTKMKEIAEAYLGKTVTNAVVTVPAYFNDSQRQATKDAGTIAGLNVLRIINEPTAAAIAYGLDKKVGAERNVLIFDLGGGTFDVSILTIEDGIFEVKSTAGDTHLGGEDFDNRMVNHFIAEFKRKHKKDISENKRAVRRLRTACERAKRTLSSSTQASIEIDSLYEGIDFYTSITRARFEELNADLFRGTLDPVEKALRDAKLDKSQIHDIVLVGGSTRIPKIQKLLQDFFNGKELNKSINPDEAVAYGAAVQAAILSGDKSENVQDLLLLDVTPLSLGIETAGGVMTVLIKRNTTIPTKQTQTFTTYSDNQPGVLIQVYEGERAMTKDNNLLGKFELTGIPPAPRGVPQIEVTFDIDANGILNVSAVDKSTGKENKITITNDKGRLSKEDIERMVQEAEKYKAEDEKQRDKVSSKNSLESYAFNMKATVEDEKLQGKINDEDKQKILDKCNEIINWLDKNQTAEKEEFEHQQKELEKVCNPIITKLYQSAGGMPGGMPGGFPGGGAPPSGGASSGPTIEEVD

No constants are given. Whether binding was seen depends on the method and setting. Some binding calls cover weakened binding; strength is not graded here.

For the assay, the target named is His6-SUMO-DNAJB4 (human) (UniProt Q9UDY4). Nature of the assay: BLI; His6-SUMO-DNAJB4 on the sensor; Hsc70 with the indicated concentrations of Hsp105; both purified.

Regarding Hsc70 (from UniProt P11142 1-646), the binding result is “binds”.
